Experimental data as given in the supplement of paper PMC6289059.
Some of the results follow. Repeats are few or missing, and single values can be far off.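 The assay uses human stem cell-derived hepatocyte-like cells whose DGUOK gene was disrupted by CRISPR, modeling liver mtDNA depletion syndrome. ATP signals were scored within each plate, and any drug with a score of at least 3 was called a primary hit.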 Starred links: 1 amine or outer side, 2 acyl side, 3 side chain; linkers in the order of their positions; H or OH if unused. Non-standard residues stand in square brackets, D forms with d. Residues, ends and D or L forms follow the SMILES beside them. ξ: configuration not given here. *: point of attachment. X3 = O=C([C@H](N[*:1])C1CCC(O)CC1)[*:2]; X5 = O=C(C(N[*:1])C1CCC(O)C(Cl)C1)[*:2]; X4 = O=C(C(N[*:1])C1CCC(O)CC1)[*:2]; aThr = C[C@H](O)[C@H](N)C(=O)O; dOrn = NCCC[C@@H](N)C(=O)O; X2 = CCC/C=C\C=C/C(=O)*; ξN = NC(=O)CC(N)C(=O)O

System: DGUOK Δ14/Δ5 iPSC-derived hepatocyte-like cells (SV20)
Experiment: ATP level (CellTiter-Glo luminescence) Z score relative to plate distribution, under 2-DG glycolysis block; higher = more cellular ATP (rescue of mitochondrial ATP production)
Details: 5 µM; treatment time: day 15 to day 20 of differentiation (5 days); 2-deoxy-D-glucose: 20 mM for 24 h before assay

Compound	ATP level
COc1cc(C(=O)NCc2ccc(OCCN(C)C)cc2)cc(OC)c1OC	inactive: -10.9
O=c1cc(CO)occ1O	inactive: -2.23
C[C@@H]1CC[C@H]2[C@](C)(CO)[C@@H](O)CC[C@]2(C)[C@@]12CC[C@@](CO)(CCO)O2	inactive: -4.26
CCC/C=C\C=C/C(=O)N[C@@H](CC(N)=O)C(=O)NC(CC(N)=O)C(=O)N[C@@H](C(=O)N[C@H](CCCN)C(=O)N[C@@H](C(=O)N[C@@H](C(=O)N[C@@H](C(=O)N[C@H](C(=O)N[C@@H](Cc1ccccc1)C(=O)N[C@H](CCCN)C(=O)NC(C(=O)N[C@H](C(=O)NC(C(=O)NCC(=O)N[C@@H](CC(C)C)C(=O)N[C@H](C)C(=O)NC(C(=O)O)C1CCC(O)C(Cl)C1)C1CCC(O)CC1)[C@H](C)O)C1CCC(O)CC1)[C@H](C)O)C1CCC(O)CC1)C1CCC(O)CC1)[C@H](C)O)C1CCC(O)CC1 (some centres not stated) [RAMOPLANIN [A2 shown; 2mM]] (X2-N[ξN][X3][dOrn][dT][X3][X3][aThr]F[dOrn][X4][aThr][X4]GL[dA][X5]-OH)	inactive: -0.0656
CC(C)c1c(O)c(-c2cc3c(c(C(C)C)c2O)CCC2C(C)(C)CCC[C@]32C)cc2c1CCC1C(C)(C)CCC[C@]21C (some centres not stated)	inactive: 0.939
C1CCC(C(CC2CCCCN2)C2CCCCC2)CC1 (configuration not stated)	inactive: -29.5
CN1CC(=O)N2[C@H](c3ccc4c(c3)OCO4)c3[nH]c4ccccc4c3C[C@@H]2C1=O	inactive: -3.47
CC1=C2C(=CO[C@H](C)[C@H]2C)C(=O)C(C(=O)O)=C1O	inactive: -0.641
O=C1C=C(O)c2ccccc2C1=O	inactive: -1.39
CC(C)NCC(O)COc1ccc(CCOCC2CC2)cc1 (configuration not stated)	inactive: 0.688
CC(=O)[C@@]1(O)CC[C@H]2[C@@H]3C[C@H](C)C4=CC(=O)C=C[C@]4(C)[C@@]3(F)[C@@H](O)C[C@@]21C	inactive: 1.47
CCc1nc(N)nc(N)c1-c1ccc(Cl)cc1	inactive: -13.9
C#CCCCCCCCCCCCC(O)CC(O)COC(C)=O.C=CCCCCCCCCCCCC(O)CC(O)COC(C)=O (configuration not stated)	active: 5.4
O=C1/C(=C/c2cccs2)CCC/C1=C\c1cccs1	inactive: 0.758
C=CC(C1=CC(=O)C(OC)=CC1=O)c1ccccc1 (configuration not stated)	inactive: -0.751
Clc1ccc(C(Cn2ccnc2)OCc2ccsc2Cl)c(Cl)c1 (configuration not stated)	inactive: -0.193
C[C@](N)(Cc1ccc(O)c(O)c1)C(=O)O	active: 3.47
CC[C@H]1C(=O)OC[C@@H]1Cc1cncn1C	inactive: -1.24
O=C(O)C(=O)O.[NH-][C@@H]1CCCC[C@H]1[NH-].[Pt+2]	inactive: -0.483
COc1c(CC(=O)c2cc3c(cc2O)OC(C)(C)C(O)C3)ccc2c1C=CC(C)(C)O2 (configuration not stated)	inactive: -0.723
CCOC(=O)COc1ccc2c(=O)cc(-c3ccccc3)oc2c1	inactive: -0.0447
CC(N)CCCC(C)(C)O (configuration not stated)	inactive: 0.245
CN1CCCN=C1/C=C/c1cccc(O)c1	inactive: -13.4
N#CCC(=O)NN	inactive: -0.775
Oc1cccc(O)c1	inactive: -0.747
CC(=O)N(c1onc(C)c1C)S(=O)(=O)c1ccc(N)cc1	inactive: 1.16

Part of the list above, in markdown:

| Compound | ATP level |
| --- | --- |
| C1CCC(C(CC2CCCCN2)C2CCCCC2)CC1 (configuration not stated) | inactive: -29.5 |
| CC1=C2C(=CO[C@H](C)[C@H]2C)C(=O)C(C(=O)O)=C1O | inactive: -0.641 |
| O=C(O)C(=O)O.[NH-][C@@H]1CCCC[C@H]1[NH-].[Pt+2] | inactive: -0.483 |
| CCOC(=O)COc1ccc2c(=O)cc(-c3ccccc3)oc2c1 | inactive: -0.0447 |
| CC(=O)N(c1onc(C)c1C)S(=O)(=O)c1ccc(N)cc1 | inactive: 1.16 |

Next part:

Compound	ATP level
Cc1cc(O)cc(C)c1Cl	inactive: -1.12
C=C1CCC(C2CC(=O)OC2=O)C(=O)CCC2C1CC2(C)C (configuration not stated)	inactive: 2
COC1=CC(=O)c2ccccc2C1=O	inactive: 0.877
CC=CC1=C(C(=O)O)N2C(=O)[C@@H](NC(=O)[C@H](N)c3ccc(O)cc3)[C@H]2SC1	inactive: 0.877
O=C1c2ccccc2C(=O)C1c1ccc(Br)cc1	inactive: -1.09
Cc1cc2c(s1)Nc1ccccc1N=C2N1CCN(C)CC1	inactive: -0.999
CC1(C)C(O[C@@H]2OC[C@@H](O)[C@H](O)[C@H]2O)CC[C@]23CC24CC[C@]2(C)[C@@H]([C@@]5(C)CC[C@@H](C(C)(C)O)O5)[C@H](O)C[C@@]2(C)C4C[C@@H](O[C@@H]2O[C@H](CO)[C@@H](O)[C@H](O)[C@H]2O)C13 (some centres not stated)	inactive: 0.38
CCOC(=S)SSC(=S)OCC	inactive: 2.97
Cc1c(O)c(=O)n(-c2ccccc2)n1C	inactive: 0.797
C[C@H]1[C@H](C)CC[C@]2(C(=O)O[C@@H]3O[C@H](CO[C@@H]4O[C@H](CO)[C@@H](O[C@@H]5O[C@H](C)[C@H](O)[C@@H](O)[C@H]5O)[C@H](O)[C@H]4O)[C@@H](O)[C@H](O)[C@H]3O)CC[C@]3(C)C(=CC[C@@H]4[C@@]5(C)C[C@@H](O)[C@H](O)[C@@](C)(CO)[C@@H]5CC[C@]43C)[C@H]12	inactive: -2.72
CC(C)OC(=O)C(C)(C)Oc1ccc(C(=O)c2ccc(Cl)cc2)cc1	inactive: 0.361
C[C@@H]1C[C@H]2[C@@H]3CCC4=CC(=O)C=C[C@]4(C)[C@@]3(Cl)[C@@H](O)C[C@]2(C)[C@@]1(OC(=O)c1ccco1)C(=O)CCl	inactive: 0.562
c1coc(CNc2ncnc3[nH]cnc23)c1	active: 3.08
CCOc1ccc2nc(S(N)(=O)=O)sc2c1	inactive: 1.42
O=c1oc2cc(O)ccc2s1	inactive: 0.258
CC1/C=C/C=C/C=C/C=C/C=C/C=C/C=C/C(OC2O[C@H](C)[C@@H](O)[C@H](N)[C@@H]2O)CC(O)C(C(=O)O)C(O)CC(=O)CC(O)CC(O)CC(O)CC(=O)CCCC(=O)CC(=O)OC1C(C)CC(C)C(O)CC(=O)c1ccc(N)cc1 (some centres not stated)	inactive: 0.591
C/C(=C\C(=O)OCCCCCCCCC(=O)O)C[C@@H]1OC[C@H](C[C@@H]2O[C@H]2[C@@H](C)[C@H](C)O)[C@@H](O)[C@H]1O	inactive: -3.45
N[C@@H](CSCSC[C@H](N)C(=O)O)C(=O)O	inactive: -1.8
CN/C(=N\CCSCc1nc[nH]c1C)NC#N	inactive: -5.63
C=C1c2cccc(O)c2C(O)=C2C(=O)[C@]3(O)C(O)=C(C(N)=O)C(=O)[C@@H](N(C)C)[C@@H]3[C@@H](O)[C@H]12	inactive: -5.56
O=C(O)c1cc(/N=N/c2ccc(S(=O)(=O)Nc3ccccn3)cc2)ccc1O	inactive: 0.583
CC1=C(/C=C/C(C)=C/C=C/C(C)=C/CO)C(C)(C)CCC1	inactive: 1.78
COC(=O)c1c(C)cc(OC(=O)c2c(C)cc(O)c(C=O)c2O)c(C)c1O	inactive: 0.712
O=C(O)c1ccccc1OP(=O)(O)O	inactive: -6.91
Cc1ncc([N+](=O)[O-])n1CC(C)O (configuration not stated)	inactive: 1.27
C/C=C(/C(=C/C)c1ccc(O)cc1)c1ccc(O)cc1	inactive: 1.52

Compound	ATP level
C[C@]12CCC(=O)C=C1[C@@H]1C[C@@H]1[C@H]1[C@@H]3[C@@H]4C[C@@H]4[C@@]4(CCC(=O)O4)[C@@]3(C)CC[C@@H]12	inactive: 0.122
CC1(C)S[C@@H]2[C@H](NC(=O)[C@H](N)c3ccccc3)C(=O)N2[C@H]1C(=O)O	inactive: -0.175
C=C[C@H]1CN2CC[C@H]1C[C@H]2[C@H](O)c1ccnc2ccc(OC)cc12	inactive: -10.6
O=C(/C=C/c1ccccc1)c1ccc(O[C@@H]2O[C@H](CO)[C@@H](O)[C@H](O)[C@H]2O)cc1O	inactive: -0.906
CC(=O)NCCCCCC(=O)O	inactive: -0.557
O=c1n(CCCN2CCN(c3cccc(Cl)c3)CC2)nc2ccccn12	inactive: -1.43
O=C(O)c1cc(=O)[nH]c(=O)[nH]1	inactive: 1.34
CC1/C(=N/O)C[C@@H]2C[C@H]1C2(C)C (some centres not stated)	inactive: -0.883
COc1ccc([C@@H](C)C(=O)c2ccc(O)cc2O)cc1	inactive: -2.65
CC(C)(C)CC(C)(C)c1cc(Cc2cc(C(C)(C)CC(C)(C)C)cc(-n3nc4ccccc4n3)c2O)c(O)c(-n2nc3ccccc3n2)c1	inactive: 0.174
NC(=O)c1cnccn1	inactive: 0.212
CC(=O)c1ccc[nH]1	inactive: 1.27
CCCn1c(=O)c2[nH]c(C3CCCC3)nc2n(CCC)c1=O	inactive: -1.44
O=C(CCNNC(=O)c1ccncc1)NCc1ccccc1	inactive: 1.6
Cc1nc2ccccn2c(=O)c1CCN1CCC(C(=O)c2ccc(F)cc2)CC1	inactive: -1.87
CSc1nc2cc(Cl)c(Oc3cccc(Cl)c3Cl)cc2[nH]1	inactive: -0.145
COc1cccc2c1C(=O)c1c(O)c3c(c(O)c1C2=O)C[C@@](O)(C(=O)CO)C[C@@H]3O[C@H]1C[C@H](N)[C@@H](O)[C@H](C)O1	active: 3.39
COc1ccc2c(c1)CC[C@@H]1[C@@H]2CC[C@]2(C)[C@@H](O)CC[C@@H]12	inactive: -1.42
O[C@H]1[C@H](O)[C@@H](O)[C@H](O)[C@@H](O)[C@H]1O	inactive: 1.42
CCCN(CCC)CCc1cccc2c1CC(=O)N2	inactive: -2.65
C=C(C)[C@@H]1CC[C@]2(CO)CC[C@]3(C)[C@H](CC[C@@H]4[C@@]5(C)CC[C@H](O)C(C)(C)[C@@H]5CC[C@]43C)[C@@H]12	inactive: 0.0268
C/C=C/c1ccc(OC)cc1	inactive: 2.09
CC(=O)O[C@H]1C(=O)[C@@]2(C)[C@H]([C@H](OC(=O)c3ccccc3)[C@]3(O)C[C@H](OC(=O)[C@H](O)[C@@H](NC(=O)c4ccccc4)c4ccccc4)C(C)=C1C3(C)C)[C@]1(OC(C)=O)CO[C@@H]1C[C@@H]2O	inactive: 1.6
O=C(/C=C/c1ccc(O)cc1)c1ccc(O)cc1O	inactive: 0.588
Cc1c(NC(=O)c2cccnc2)c(=O)n(-c2ccccc2)n1C	inactive: -0.964
